In paper PMC4537050, “A long pentraxin-3-derived pentapeptide for the therapy of FGF8b-driven steroid hormone-regulated cancers” (Oncotarget, 2015) one finds binding data, which are given here for one molecule.

In the assay the target is Human recombinant FGF8b (fibroblast growth factor-8b) (human). As to the kind of experiment: SPR; BIAcore X-100; FGF8b (20 μg/ml in 10 mM sodium acetate, pH 6.0) or other FGFs (10 mM sodium acetate at optimal pH) immobilised on a CM5 sensor chip by EDC/NHS; peptide injected (ARPCA 8 μM to 2000 μM), 4 min at 30 μl/min, 10 min dissociation, in HBS; equilibrium values fitted with the Langmuir equation for monovalent binding; both purified.

No constants are given. Whether binding was seen depends on the method and setting.

On to APCRA (N-terminal acetyl; C-terminal amide) [Ac-APCRA-NH2, partially scrambled peptide], for which the binding result was “no binding”.
